# In patent US20070072904A1, “PPAR active compounds” (priority 2005, published 2007):
# Some results were stated once for a whole list of compounds, not compound by compound.
# Test system: PPARα, PPARγ and PPARδ
# Assay: PPAR activity assays: biochemical assay of Example 9 or cell based assay of Example 10, at least one of the PPARs
# Conditions: read-out: EC50 in at least one of PPARα, PPARγ and PPARδ activity assays; either biochemical assay of Example 9 or cell based assay of Example 10; at least one of the PPARs
row,Compound,EC50
1,"O=C(O)CCc1cn(S(=O)(=O)c2ccc(Oc3cc(Cl)cc(Cl)c3)cc2)c2cc3c(cc12)OCO3 [Compound P-0224, 3-{5-[4-(3,5-Dichloro-phenoxy)-benzenesulfonyl]-5H-[1,3]dioxolo[4,5-f]indol-7-yl}-propionic acid]",≤ 1000 nM
2,"CCOc1ccc2c(c1)c(CCC(=O)O)cn2S(=O)(=O)c1ccc(-c2ccc(F)c(F)c2)s1 [Compound P-0423, 3-{1-[5-(3,4-Difluoro-phenyl)-thiophene-2-sulfonyl]-5-ethoxy-1H-indol-3-yl}-propionic acid]",≤ 1000 nM
3,"CCOc1ccc2c(CCC(=O)O)cn(S(=O)(=O)c3ccc(-c4ccnc(SC)n4)s3)c2c1 [Compound P-0347, 3-{6-Ethoxy-1-[5-(2-methylsulfanyl-pyrimidin-4-yl)-thiophene-2-sulfonyl]-1H-indol-3-yl}-propionic acid]",≤ 1000 nM
4,"COc1ccc2c(c1)c(CCC(=O)O)cn2S(=O)(=O)c1ccc2c(c1)OCCO2 [Compound P-0163, 3-[1-(2,3-Dihydro-benzo[1,4]dioxine-6-sulfonyl)-5-methoxy-1H-indol-3-yl]-propionic acid]",≤ 1000 nM
5,"CCOc1ccc(-c2ccc(S(=O)(=O)n3cc(CCC(=O)O)c4cc(F)ccc43)s2)cc1 [Compound P-0476, 3-{1-[5-(4-Ethoxy-phenyl)-thiophene-2-sulfonyl]-5-fluoro-1H-indol-3-yl}-propionic acid]",≤ 1000 nM
6,"CC(C)Oc1ccc2c(c1)c(CCC(=O)O)cn2S(=O)(=O)c1ccccc1Cl [Compound P-0330, 3-[1-(2-Chloro-benzenesulfonyl)-5-isopropoxy-1H-indol-3-yl]-propionic acid]",≤ 1000 nM
7,"O=C(O)CCc1cn(S(=O)(=O)c2ccc(Oc3cc(Cl)cc(Cl)c3)cc2)c2ccc(-c3cccnc3)cc12 [Compound P-0100, 3-{1-[4-(3,5-Dichloro-phenoxy)-benzenesulfonyl]-5-pyridin-3-yl-1H-indol-3-yl}-propionic acid]",≤ 1000 nM
8,"O=C(O)CCc1cn(S(=O)(=O)c2ccc(Oc3ncc(C(F)(F)F)cc3Cl)cc2)c2cc3c(cc12)OCO3 [Compound P-0226, 3-{5-[4-(3-Chloro-5-trifluoromethyl-pyridin-2-yloxy)-benzenesulfonyl]-5H-[1,3]dioxolo[4,5-f]indol-7-yl}-propionic acid]",≤ 1000 nM
9,"CCOc1ccc2c(c1)c(CCC(=O)O)cn2S(=O)(=O)c1ccccc1-c1ccc(OC)cc1 [Compound P-0530, 3-[5-Ethoxy-1-(4′-methoxy-biphenyl-2-sulfonyl)-1H-indol-3-yl]-propionic acid]",≤ 1000 nM
10,"COc1ccc2c(c1)c(CCC(=O)O)cn2S(=O)(=O)c1ccc(-c2cccc(F)c2)s1 [Compound P-0477, 3-{1-[5-(3-Fluoro-phenyl)-thiophene-2-sulfonyl]-5-methoxy-1H-indol-3-yl}-propionic acid]",≤ 1000 nM
11,"Cn1cc(-c2ccc(S(=O)(=O)n3cc(CCC(=O)O)c4cc(Cl)ccc43)s2)cn1 [Compound P-0456, 3-{5-Chloro-1-[5-(1-methyl-1H-pyrazol-4-yl)-thiophene-2-sulfonyl]-1H-indol-3-yl}-propionic acid]",≤ 1000 nM
12,"CC(C)Oc1ccc2c(c1)c(CCC(=O)O)cn2S(=O)(=O)c1csc2ccccc12 [Compound P-0310, 3-[1-(Benzo[b]thiophene-3-sulfonyl)-5-issopropoxy-1H-indol-3-yl]-propionic acid]",≤ 1000 nM
13,"COc1ccc2c(c1)c(CCC(=O)O)cn2S(=O)(=O)c1cccc(Oc2ccc(C(F)(F)F)cc2)c1 [Compound P-0564, 3-{5-Methoxy-1-[3-(4-trifluoromethyl-phenoxy)-benzenesulfonyl]-1H-indol-3-yl}-propionic acid]",≤ 1000 nM
14,"COc1ccc(-c2ccc(S(=O)(=O)n3cc(CCC(=O)O)c4cc(Cl)ccc43)s2)c(OC)n1 [Compound P-0464, 3-{5-Chloro-1-[5-(2,6-dimethoxy-pyridin-3-yl)-thiophene-2-sulfonyl]-1H-indol-3-yl}-propionic acid]",≤ 1000 nM
15,"O=C(O)CCc1cn(S(=O)(=O)c2ccc(-c3ccc(OCc4ccccc4)cc3)s2)c2ccc(F)cc12 [Compound P-0493, 3-{1-[5-(4-Benzyloxy-phenyl)-thiophene-2-sulfonyl]-5-fluoro-1H-indol-3-yl}-propionic acid]",≤ 1000 nM
16,"CCOc1ccc2c(c1)c(CCC(=O)O)cn2S(=O)(=O)c1ccc(C#N)cc1 [Compound P-0166, 3-[1-(4-Cyano-benzenesulfonyl)-5-ethoxy-1H-indol-3-yl]-propionic acid]",≤ 1000 nM
17,"CCOc1ccc2c(CCC(=O)O)cn(S(=O)(=O)c3cc(C)sc3C)c2c1 [Compound P-0188, 3-[1-(2,5-Dimethyl-thiophene-3-sulfonyl)-6-ethoxy-1H-indol-3-yl]-propionic acid]",≤ 1000 nM
18,"CCOc1ccc2c(c1)c(CCC(=O)O)cn2S(=O)(=O)c1ccc(-c2ccoc2)s1 [Compound P-0408, 3-[5-Ethoxy-1-(5-furan-3-yl-thiophene-2-sulfonyl)-1H-indol-3-yl]-propionic acid]",≤ 1000 nM

row,Compound,EC50
1,"Cc1cc(S(=O)(=O)n2cc(CCC(=O)O)c3cc4c(cc32)OCO4)c(C)s1 [Compound P-0294, 3-[5-(2,5-Dimethyl-thiophene-3-sulfonyl)-5H-[1,3]dioxolo[4,5-f]indol-7-yl]-propionic acid]",≤ 1000 nM
2,"CCOc1ccc2c(c1)c(CCC(=O)O)cn2S(=O)(=O)c1ccc(-c2ccco2)s1 [Compound P-0404, 3-[5-Ethoxy-1-(5-furan-2-yl-thiophene-2-sulfonyl)-1H-indol-3-yl]-propionic acid]",≤ 1000 nM
3,"O=C(O)CCc1cn(S(=O)(=O)c2ccc(-c3cccc(C(F)(F)F)c3)s2)c2ccc(Cl)cc12 [Compound P-0489, 3-{5-Chloro-1-[5-(3-trifluoromethyl-phenyl)-thiophene-2-sulfonyl]-1H-indol-3-yl}-propionic acid]",≤ 1000 nM
4,"COc1ccc(-c2ccc(S(=O)(=O)n3cc(CCC(=O)O)c4cc5c(cc43)OCO5)cc2)cc1 [Compound P-0228, 3-[5-(4′-Methoxy-biphenyl-4-sulfonyl)-5H-[1,3]dioxolo[4,5f]indol-7-yl]-propionic acid]",≤ 1000 nM
5,"COc1ccc(Oc2ccc(S(=O)(=O)n3cc(CCC(=O)O)c4cc(OC(C)C)ccc43)cc2)cc1 [Compound P-0318, 3-{5-Isopropoxy-1-[4-(4-methoxy-phenoxy)-benzenesulfonyl]-1H-indol-3-yl}-propionic acid]",≤ 1000 nM
6,"O=C(O)CCc1cn(S(=O)(=O)c2ccc(Oc3ccccn3)cc2)c2cc3c(cc12)OCO3 [Compound P-0277, 3-{5-[4-(Pyridin-2-yloxy)-benzenesulfonyl]-5H[1,3]dioxolo[4,5-f]indol-7-yl}-propionic acid]",≤ 1000 nM
7,"CC(C)Oc1ccc2c(c1)c(CCC(=O)O)cn2S(=O)(=O)c1ccc(Oc2ncc(C(F)(F)F)cc2Cl)cc1 [Compound P-0320, 3-{1-[4-(3-Chloro-5-trifluoromethyl-pyridin-2-yloxy)-benzenesulfonyl]-5-isopropoxy-1H-indol-3-yl}-propionic acid]",≤ 1000 nM
8,"O=C(O)CCc1cn(S(=O)(=O)c2ccc(-c3ccc(F)c(F)c3)s2)c2ccc(Cl)cc12 [Compound P-0424, 3-{5-Chloro-1-[5-(3,4-difluoro-phenyl)-thiophene-2-sulfonyl]-1H-indol-3-yl}-propionic acid]",≤ 1000 nM
9,"O=C(O)CCc1cn(S(=O)(=O)c2ccc(-c3ccc(Cl)c(Cl)c3)s2)c2ccc(F)cc12 [Compound P-0487, 3-{1-[5-(3,4-Dichloro-phenyl)-thiophene-2-sulfonyl]-5-fluoro-1H-indol-3-yl}-propionic acid]",≤ 1000 nM
10,"CCOc1ccc2c(c1)c(CCC(=O)O)cn2S(=O)(=O)c1c(C)nn(C)c1Cl [Compound P-0377, 3-[1-(5-Chloro-1,3-dimethyl-1H-pyrazole-4-sulfonyl)-5-ethoxy-1H-indol-3-yl]-propionic acid]",≤ 1000 nM
11,"CCOc1ccc2c(c1)c(CCC(=O)O)cn2S(=O)(=O)c1sc(C)cc1-c1ccc(Cl)cc1 [Compound P-0540, 3-{1-[3-(4-Chloro-phenyl)-5-methyl-thiophene-2-sulfonyl]-5-ethoxy-1H-indol-3-yl}-propionic acid]",≤ 1000 nM
12,"CCOc1ccc2c(c1)c(CCC(=O)O)cn2S(=O)(=O)c1ccc(-c2ccc(N3CCOCC3)cc2)s1 [Compound P-0513, 3-{5-Ethoxy-1-[5-(4-morpholin-4-yl-phenyl)-thiophene-2-sulfonyl]-1H-indol-3-yl}-propionic acid]",≤ 1000 nM
13,"Cc1nn(C)c(Cl)c1S(=O)(=O)n1cc(CCC(=O)O)c2cc3c(cc21)OCO3 [Compound P-0222, 3-[5-(5-Chloro-1,3-dimethyl-1H-pyrazole-4-sulfonyl)-5H-[1,3]dioxolo[4,5-f]indol-7-yl]-propionic acid]",≤ 1000 nM
14,"COc1ccc2c(c1)c(CCC(=O)O)cn2S(=O)(=O)c1ccc(-c2cc(C(F)(F)F)cc(C(F)(F)F)c2)s1 [Compound P-0001, 3-{1-[5-(3,5-Bis-trifluoromethyl-phenyl)-thiophene-2-sulfonyl]-5-methoxy-1H-indol-3-yl}-propionic acid]",≤ 1000 nM
15,"CCOc1ccc2c(c1)c(CCC(=O)O)cn2S(=O)(=O)c1ccc(-c2cccc(C(F)(F)F)c2)s1 [Compound P-0488, 3-{5-Ethoxy-1-[5-(3-trifluoromethyl-phenyl)-thiophene-2-sulfonyl]-1H-indol-3-yl}-propionic acid]",≤ 1000 nM
16,"CC(C)Oc1ccc2c(CCC(=O)O)cn(S(=O)(=O)c3ccc(Oc4ccc(C(F)(F)F)cc4)cc3)c2c1 [Compound P-0207, 3-{6-Isopropoxy-1-[4-(4-trifluoromethyl-phenoxy)-benzenesulfonyl]-1H-indol-3-yl}-propionic acid]",≤ 1000 nM
17,"COc1ccc(S(=O)(=O)n2cc(/C=C\C(=O)O)c3cc(OC)ccc32)cc1 [Compound P-0010, (Z)-3-[5-Methoxy-1-(4-methoxy-benzenesulfonyl)-1H-indol-3-yl]-acrylic acid]",≤ 1000 nM
18,"COc1ccc2c(c1)c(CCC(=O)O)cn2S(=O)(=O)c1ccc(-c2ccc(N3CCOCC3)cc2)s1 [Compound P-0512, 3-{5-Methoxy-1-[5-(4-morpholin-4-yl-phenyl)-thiophene-2-sulfonyl]-1H-indol-3-yl}-propionic acid]",≤ 1000 nM
